We go through one sequence from PMC5303823, “DEK-targeting DNA aptamers as therapeutics for inflammatory arthritis”.

For at least one entry, the source does not settle the construct or the ends of the probe. At least one verdict was read from the data and is not stated in words by the source. Where a protein sequence is shown, tags need not be part of it.

The data set concerns the target T1, DEK (recombinant, baculovirus) (UniProt P35659).
T1 sequence (looked up, limits assumed): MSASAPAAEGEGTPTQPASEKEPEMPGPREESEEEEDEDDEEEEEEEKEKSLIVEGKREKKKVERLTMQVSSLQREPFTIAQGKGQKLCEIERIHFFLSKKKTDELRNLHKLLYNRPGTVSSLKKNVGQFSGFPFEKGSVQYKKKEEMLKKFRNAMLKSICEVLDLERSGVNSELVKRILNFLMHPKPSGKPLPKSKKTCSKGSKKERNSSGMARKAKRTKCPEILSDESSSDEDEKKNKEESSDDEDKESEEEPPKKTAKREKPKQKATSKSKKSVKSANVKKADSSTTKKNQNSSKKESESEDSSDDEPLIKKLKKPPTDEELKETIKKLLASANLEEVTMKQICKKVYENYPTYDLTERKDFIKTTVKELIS
Description: filter binding (dot blot, 32P). To be noted: 5 mM Mg2+, 100 ug/ml salmon sperm DNA, screened as clone with library flanks; Selection and dot blot: 20 mM Tris pH 7.6, 100 mM NaCl, 5 mM MgCl2 (selection at room temperature; dot blot with 100 ug/ml salmon sperm DNA); recombinant protein; single-stranded DNA.

As to “GGGGTTAAATATTCCCACATTGCCTGCGCCAGTACAAATAG [DTA-64]”, the binding result is “binds”.
